Laboratory results published in US20260356887A1, “NOVEL MYD88 INHIBITOR FOR TREATMENT OF AUTOIMMUNE DISEASES AND USES THEREOF” (S&K THERAPEUTICS, priority 2023, published 2026).
“Also recorded” adds a separate entry of the source. Not every detail of the peptide structures is certain; ends, links or a residue may be inferred. No end group written: not given here.

Protein sequences, listed by entry. Tags and fused reporters are not part of them.
UniProt Q99836, whole entry: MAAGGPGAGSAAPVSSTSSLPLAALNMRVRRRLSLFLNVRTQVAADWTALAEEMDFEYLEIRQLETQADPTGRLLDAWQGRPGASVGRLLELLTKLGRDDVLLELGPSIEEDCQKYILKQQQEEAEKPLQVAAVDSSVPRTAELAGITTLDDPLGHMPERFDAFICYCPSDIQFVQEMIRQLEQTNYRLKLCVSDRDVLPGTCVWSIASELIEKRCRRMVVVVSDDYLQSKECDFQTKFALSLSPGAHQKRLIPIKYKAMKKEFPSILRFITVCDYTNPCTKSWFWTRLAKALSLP

Legend:
[1] = system: RAW 264.7 cells (LPS-induced activation of TLR4); experiment: LPS-induced IL-6 secretion in mouse macrophages (RAW 264.7), ELISA; format: cell-based; conditions: pretreated with peptide, LPS 100 ng/ml, 24 hours, FIG. 2b
[2] = system: TLR3; experiment: poly(I:C)-induced TNF-α secretion in RAW 264.7 cells, ELISA; format: cell-based, mouse; conditions: pretreated with peptide
[3] = system: TLR1/2; experiment: Pam3CSK4-induced TNF-α secretion in RAW 264.7 cells, ELISA; format: cell-based, mouse; conditions: pretreated with peptide
[4] = system: TLR9; experiment: CpG-ODN-induced TNF-α secretion in RAW 264.7 cells, ELISA; format: cell-based, mouse; conditions: pretreated with peptide
[5] = system: TLR2/6; experiment: FSL-1-induced TNF-α secretion in RAW 264.7 cells, ELISA; format: cell-based, mouse; conditions: pretreated with peptide
[6] = system: RAW 264.7 cells (LPS-induced activation of TLR4); experiment: LPS-induced TNF-α secretion in mouse macrophages (RAW 264.7), ELISA; format: cell-based; conditions: for LPS-induced TNF-α secretion: pretreated with peptide, LPS 100 ng/ml, 4 hours, FIG. 2a
[7] = system: TLR7; experiment: Imiquimod-induced TNF-α secretion in RAW 264.7 cells, ELISA; format: cell-based, mouse; conditions: pretreated with peptide at 1, 10, 50 μM
[8] = system: TLR7/8; experiment: R848-induced TNF-α secretion in RAW 264.7 cells, ELISA; format: cell-based, mouse; conditions: pretreated with peptide
[9] = system: TLR5; experiment: Flagellin-induced TNF-α secretion in RAW 264.7 cells, ELISA; format: cell-based, mouse; conditions: pretreated with peptide
[10] = system: C57BL/6 mice with IMQ-induced psoriasis; experiment: Imiquimod-induced psoriasis model; format: in vivo, mouse; conditions: MyDIP2-4 5 and 20 mg/kg i.p.
Procedure: Six-week-old female C57BL/6 mice (Orient Bio, Seongnam, Korea) were housed under specific pathogen-free conditions on a standard laboratory ad libitum diet. Animal experiments related to psoriasis were approved by the Animal Care and Use Committee [NDIC Approval Nos. 12022111 (EAE) and I2022053-3 (psoriasis), Hwaseong, Korea] and were performed in accordance with relevant guidelines and regulations.
Disease was induced by topical application of Aldara cream (Donga ST; Seoul, Korea) containing 5% imiquimod onto the back of six-week-old female C57BL/6 mice for 5 consecutive days. MyDIP2-4 was administered intraperitoneally at doses of 5 and 20 mg/kg. As a positive control group, dexamethasone (Sigma-Aldrich; cat. No. D1756) was administered orally at a dose of 10 mg/kg. Five days later, mice were sacrificed under respiratory anesthesia, and skin lesions were collected for histological examination.
An objective scoring system to quantify the severity of back skin inflammation was established based on the PASI scoring system, a widely used clinical tool to assess psoriasis severity. On a scale from 0 to 4, factors such as erythema, scaling, wrinkles, and thickness were individually assessed as follows: 0, none; 1, weak; 2, moderate; 3, significant; and 4, very evident. Under the careful supervision of experienced investigators, erythema, scaling, and thickness were graded. The cumulative score (erythema+scaling+thickness score, scale 0-12) indicates the severity of psoriasis symptoms.
Skin tissue was removed, the upper layer was fixed in neutral formalin, and H&E staining and IHC were performed. Epidermal thickness of skin tissue was measured using H&E staining. IL-17, KI-67, and IL-23 levels were measured using IHC with the aid of antibodies against IL-17A (Thermo Fisher Scientific; cat. No. PA5-79470), KI-67 (Cell Signaling; cat. No. 12202), and IL-23 (Novus Biologicals; cat. No. NBP1-76697).
To establish an IMQ-induced psoriasis model, Aldara cream containing 5% imiquimod was topically applied onto the back of six-week-old female C57BL/6 mice for 5 consecutive days. Dexamethasone as a positive control group was administered orally, and MyDIP2-4 was administered intraperitoneally. The doses of MyDIP2-4 were 5 mg/kg and 20 mg/kg, and the dose of dexamethasone was 10 mg/kg. PBS was used as a vehicle control group.

[11] = system: IL-1R; experiment: IL-1β-induced TNF-α secretion in THP-1-derived macrophages (IL-1R signaling), ELISA; format: cell-based, human; conditions: IL-1β 150 ng/ml
[12] = system: NF-κB and MAPKs (TLR7-dependent); experiment: Western blot of TLR7-dependent NF-κB signaling and MAPK expression in RAW 264.7 cells; format: cell-based, mouse; conditions: 2 μg/ml IMQ
[13] = system: C57BL/6 mice with MOG35-55-induced EAE; experiment: MOG35-55-induced experimental autoimmune encephalomyelitis (EAE) model; format: in vivo, mouse; conditions: plasma; 40 mg/kg i.p. once daily; ELISA
Procedure: Eight-week-old female C57BL/6 (B6) mice (Orient Bio, Korea) were maintained in a specific pathogen-free environment on a standard laboratory ad libitum diet. All experiments were approved by the Animal Care and Use Committee [NDIC Approval Nos. 12022111 (EAE) and I2022053-3 (psoriasis), Hwaseong, Korea] and were performed in accordance with relevant guidelines and regulations.
EAE was induced in mice using the Hooke Kit (MOG35-55/complete Freund's adjuvant (CFA) Emulsion PTX (Hooke Laboratories, LLC, Lawrence, MA, USA)) according to the manufacturer's protocol. Mice were immunized subcutaneously with myelin oligodendrocyte glycoprotein emulsified in complete Freund's adjuvant. […]
Mice were weighed and examined daily, and EAE symptoms were assessed using the following standard scoring system: 0-6: 0, no symptoms; 1, limp tail; 2, limp tail and hind limb paralysis; 3, paralysis of one or more hind limbs; 4, complete hind limb and hindquarter paralysis; 5, hindquarter paralysis with forelimb paralysis; and 6, death. […]
To investigate the therapeutic potential of MyDIP2-4 on EAE progression, mice were immunized with MOG35-55 peptide in CFA and pertussis toxin was administered once on day 0 and again 24 hours later. […] Mouse body weight and EAE clinical scores were recorded three times a week: days 0, 2, 5, 7, 9, 12, 14, 16, 19, and 21.

[14] = system: THP-1-derived macrophages (TLR4 stimulation by LPS); experiment: LPS-induced TNF-α secretion in THP-1-derived macrophages, ELISA; format: cell-based, human; conditions: LPS 100 ng/ml
[15] = system: NLRP3; experiment: Nigericin-activated NLRP3 IL-1β secretion in PMA-differentiated THP-1 cells; format: cell-based, human; conditions: PMA-differentiated THP-1 primed with LPS
[16] = system: TLR8; experiment: TL8-induced TNF-α secretion in RAW 264.7 cells, ELISA; format: cell-based, mouse; conditions: pretreated with peptide
[17] = molecular target: human MyD88 protein (Homo sapiens, UniProt Q99836); experiment: Surface plasmon resonance (SPR) analysis of MyDIP2-4 and MyD88; format: binding; conditions: SPR sensorgrams; 0.8 to 12.8 μM
Procedure: The biophysical interactions between MyDIP2-4 and MyD88 were evaluated using SPR analysis in an iMSPR-mini system (icluebio, Seongnam, Korea). MyD88 protein was immobilized on the surface of a nitrilotriacetic acid (NTA) sensor chip at a concentration of 50 μg/ml. MyDIP2-4 was injected into the MyD88-binding chip at various concentrations ranging from 0.8 to 12.8 μM (dissolved in PBS) at a flow rate of 50 μl/min. PBS was used as a running buffer and injected into the empty channel as a reference. Experiments were performed twice using freshly prepared reagents, and data were analyzed using TraceDrawer software (Ridgeview Instruments; Uppsala, Sweden).
SPR technology was used to evaluate the biophysical interaction between the MyDIP2-4 peptide and the MyD88 protein. SPR analysis involves immobilizing the MyD88 protein on the surface of a sensor chip and then flowing the MyDIP2-4 peptide at various concentrations.

[18] = IHC, dexamethasone 10 mg/kg oral

Sequence: RQIKIWFQNRRMKWKKWFWTRLAKA [MyDIP1]
- LPS-induced IL-6 secretion [1]: significantly inhibited IL-6 secretion

Sequence: RQIKIWFQNRRMKWKKWFWTRLAKALSLP [MyDIP2]
- TNF-α secretion, poly(I:C) (TLR3) [2]: not TLR3
- LPS-induced IL-6 secretion [1]: significantly inhibited IL-6 secretion; also recorded: maximally inhibit LPS-mediated TNF-α and IL-6 activation
- TNF-α secretion, Pam3CSK4 (TLR1/2) [3]: inhibited TNF-α secretion
- TNF-α secretion, CpG-ODN (TLR9) [4]: inhibited TNF-α secretion
- TNF-α secretion, FSL-1 (TLR2/6) [5]: inhibited TNF-α secretion
- LPS-induced TNF-α secretion [6]: significantly downregulated TNF-α secretion; also recorded: maximally inhibit LPS-mediated TNF-α and IL-6 activation
- TNF-α secretion, imiquimod (TLR7) [7]: inhibited TNF-α secretion
- TNF-α secretion, R848 (TLR7/8) [8]: inhibited TNF-α secretion
- TNF-α secretion, flagellin (TLR5) [9]: inhibited TNF-α secretion

Sequence: RQIKIWFQNRRMKWKKWLWFILFKKLSLP [MyDIP2-4]
- TNF-α secretion, poly(I:C) (TLR3) [2]: Significant inhibition
- epidermal thickness ([10]; H&E, dexamethasone 10 mg/kg oral): not in the MyDIP2-4-treated group; also recorded: did not significantly reduce
- IL-23 levels in skin tissue ([10]; IHC): both doses of MyDIP2-4 significantly reduced IL-23 levels
- IL-17 expression in skin tissue [10, 18]: did not inhibit; also recorded: did not alter IL-17 levels
- KI-67 in skin tissue (KI-67-positive cells) [10, 18]: significantly downregulated
- TNF-α secretion in response to IL-1β (IL-1R signaling) [11]: efficiently inhibited IL-1R signaling
- ERK phosphorylation [12]: inhibited MAPK phosphorylation
- JNK phosphorylation [12]: inhibited MAPK phosphorylation
- degradation of Iκ-Bα [12]: block the degradation
- p-p38 (MAPK phosphorylation) [12]: inhibited MAPK phosphorylation
- phospho p-65 expression [12]: significantly downregulate
- IFN-γ cytokine secretion (EAE) [13]: significantly inhibit
- IL-6 cytokine secretion (EAE) [13]: significantly inhibit
- TNF-α secretion in response to LPS, human macrophages [14]: inhibited TNF-α secretion in THP-1-derived macrophages more efficiently than MyDIP2; also recorded: downregulate TNF-α in response to LPS
- LPS-induced IL-6 secretion [1]: significantly inhibited LPS-mediated IL-6 secretion
- TNF-α secretion, Pam3CSK4 (TLR1/2) [3]: Significant inhibition
- TNF-α secretion, CpG-ODN (TLR9) [4]: Significant inhibition
- TNF-α secretion, FSL-1 (TLR2/6) [5]: Significant inhibition
- nigericin-activated IL-1β levels (NLRP3) [15]: no effect
- IC50 ([6]; TNF-α in response to LPS, FIGS. 3c, 3d, read-out: IC50 for LPS stimulation (TNF-α secretion)): 2600 nM
- LPS-induced TNF-α secretion [6]: dose-dependent effect
- TNF-α secretion, TL8 (TLR8) [16]: Significant inhibition
- TNF-α secretion, R848 (TLR7/8) [8]: Significant inhibition
- TNF-α secretion, flagellin (TLR5) [9]: Significant inhibition
- binding to immobilized MyD88 protein [17]: concentration-dependent manner
